Measurements published in the supplement of paper PMC4604168 (melanoma cell lines).
The other results are listed elsewhere or left out. Many values rest on one well or one pass, so single values are uncertain.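 Cells were imaged in 1,536-well plates, and nuclei stained with an antibody against cleaved PARP were counted against all DNA-stained nuclei to give the apoptosis fraction. Screening doses were chosen to leave most cells alive, and resting and induced cleaved-PARP levels differ strongly between cell lines.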

What was measured:
Assay in all cases: cleaved PARP positive nuclei fraction relative to DMSO control; melanoma cells; higher = more apoptosis
Conditions in all cases: library dose: low library concentration; 72 h
501Mel = system: 501Mel
A101D = system: A101D
A2058 = system: A2058
A375 = system: A375
C32 = system: C32
CBRC008 = system: CBRC008 (line from a melanoma biopsy)
CBRC014 = system: CBRC014 (line from a melanoma biopsy)
CBRC016 = system: CBRC016 (line from a melanoma biopsy)
CBRC017 = system: CBRC017 (line from a melanoma biopsy)
CBRC034 = system: CBRC034 (line from a melanoma biopsy)
COLO792 = system: COLO792
COLO800 = system: COLO800
COLO829 = system: COLO829
G361 = system: G361
IPC-298 = system: IPC-298
IST-MEL1 = system: IST-MEL1
LB2518-MEL = system: LB2518-MEL
LOXIMVI = system: LOXIMVI
MEL-HO = system: MEL-HO

| SMILES | cleaved PARP positive nuclei fraction (501Mel) [%] | cleaved PARP positive nuclei fraction (A101D) [%] | cleaved PARP positive nuclei fraction (A2058) [%] | cleaved PARP positive nuclei fraction (A375) [%] | cleaved PARP positive nuclei fraction (C32) [%] | cleaved PARP positive nuclei fraction (CBRC008) [%] | cleaved PARP positive nuclei fraction (CBRC014) [%] | cleaved PARP positive nuclei fraction (CBRC016) [%] | cleaved PARP positive nuclei fraction (CBRC017) [%] | cleaved PARP positive nuclei fraction (CBRC034) [%] | cleaved PARP positive nuclei fraction (COLO792) [%] | cleaved PARP positive nuclei fraction (COLO800) [%] | cleaved PARP positive nuclei fraction (COLO829) [%] | cleaved PARP positive nuclei fraction (G361) [%] | cleaved PARP positive nuclei fraction (IPC-298) [%] | cleaved PARP positive nuclei fraction (IST-MEL1) [%] | cleaved PARP positive nuclei fraction (LB2518-MEL) [%] | cleaved PARP positive nuclei fraction (LOXIMVI) [%] | cleaved PARP positive nuclei fraction (MEL-HO) [%] |
| --- | --- | --- | --- | --- | --- | --- | --- | --- | --- | --- | --- | --- | --- | --- | --- | --- | --- | --- | --- |
| Cc1cn(-c2cc(NC(=O)c3ccc(C)c(Nc4nccc(-c5cccnc5)n4)c3)cc(C(F)(F)F)c2)cn1 [nilotinib] + COc1ccc(Cl)c(Nc2nc3ccccc3nc2NS(=O)(=O)c2cccc(NC(=O)C(C)(C)N)c2)c1 [XL147] (first compound 0.2 µM, partner dose 0.8 µM) | 125 | 93.3 | 105 | 54.1 | 245 | 365 | 119 | 270 | 109 | 89.7 | 72.8 | 50.5 | 92.6 | 93.4 | 138 | 131 | 54.3 | 29.4 | 120 |
| Cc1cn(-c2cc(NC(=O)c3ccc(C)c(Nc4nccc(-c5cccnc5)n4)c3)cc(C(F)(F)F)c2)cn1 [nilotinib] + CC(C)C[C@H](NC(=O)[C@H](Cc1ccccc1)NC(=O)c1cnccn1)B(O)O [Bortezomib] (first compound 0.2 µM, partner dose 0.001 µM) | 169 | 130 | 132 | 162 | 71 | 166 | 119 | 146 | 137 | 121 | 85 | 179 | 207 | 212 | 200 | 129 | 92.9 | 124 | 63.8 |
| Cc1ccc(Nc2nccc(N(C)c3ccc4c(C)n(C)nc4c3)n2)cc1S(N)(=O)=O [Pazopanib] + CCCS(=O)(=O)Nc1ccc(F)c(C(=O)c2c[nH]c3ncc(Cl)cc23)c1F [PLX4720] (first compound 0.4 µM, partner dose 0.08 µM) | 118 | 170 | 97 | 60.3 | 90.1 | 74.6 | 114 | 68.2 | 114 | 24.6 | 101 | 109 | 88.2 | 78.9 | 108 | 59.6 | 212 | 111 | 145 |
| Cc1ccc(Nc2nccc(N(C)c3ccc4c(C)n(C)nc4c3)n2)cc1S(N)(=O)=O [Pazopanib] + Cn1cnc2c(F)c(Nc3ccc(Br)cc3Cl)c(C(=O)NOCCO)cc21 [selumetinib] (first compound 0.4 µM, partner dose 0.015 µM) | 2190 | 29.4 | 71.7 | 112 | 93 | 100 | 80.4 | 94.6 | 107 | 243 | 115 | 151 | 40.1 | 282 | 149 | 174 | 67.8 | 107 | 59.3 |
| O=C(/C=C/c1cccnc1)NCCCCC1CCN(C(=O)c2ccccc2)CC1 + O=C(O)[C@@H]1[O][Sb](=[O])([O][Sb]2(=[O])[O][C@H]([C@H](O)CO)[C@H](O)[C@H](C(=O)O)[O]2)[O][C@H]([C@H](O)CO)[C@@H]1O [stibogluconate] (first compound 0.01 µM, partner dose 2 µM) | 80.2 | 92.3 | 62.3 | 115 | 74.3 | 2380 | 85.9 | 679 | 889 | 513 | 728 | 132 | 201 | 4250 | 218 | 117 | 189 | 198 | 120 |
| CC[C@]1(O)C[C@H]2CN(CCc3c([nH]c4ccccc34)[C@@](C(=O)OC)(c3cc4c(cc3OC)N(C=O)[C@H]3[C@@](O)(C(=O)OC)[C@H](OC(C)=O)[C@]5(CC)C=CCN6CC[C@]43[C@@H]65)C2)C1 [vincristine] + C[C@]1(O)C[C@@H](c2nc(-c3ccc4ccc(-c5ccccc5)nc4c3)c3c(N)nccn32)C1 [OSI906] (first compound 0.0001 µM, partner dose 0.4 µM) | 64.9 | 105 | 93 | 311 | 73.1 | 121 | 106 | 122 | 123 | 53.1 | 61.5 | 73.5 | 131 | 86.8 | 25.8 | 118 | 59.6 | 166 | 56.5 |
| Cc1cn(-c2cc(NC(=O)c3ccc(C)c(Nc4nccc(-c5cccnc5)n4)c3)cc(C(F)(F)F)c2)cn1 [nilotinib] + C[C@@H](N)c1ccc(C(=O)Nc2ccnc3[nH]ccc23)cc1 [RKI983] (first compound 0.2 µM, partner dose 0.4 µM) | 129 | 215 | 124 | 214 | 103 | 167 | 119 | 344 | 90.6 | 83.2 | 119 | 70 | 123 | 215 | 55 | 60.5 | 164 | 58.3 | 107 |
| O=c1[nH]nc(Sc2ncc([N+](=O)[O-])s2)n1-c1ccc2c(c1)OCCO2 + Cc1nc(Nc2ncc(C(=O)Nc3c(C)cccc3Cl)s2)cc(N2CCN(CCO)CC2)n1 [dasatanib] (first compound 0.2 µM, partner dose 0.004 µM) | 108 | 144 | 181 | 74.7 | 82.7 | 34 | 115 | 46.5 | 135 | 433 | 82.9 | 94 | 88.9 | 103 | 189 | 122 | 112 | 139 | 70.5 |
| CC[C@]1(O)C[C@H]2CN(CCc3c([nH]c4ccccc34)[C@@](C(=O)OC)(c3cc4c(cc3OC)N(C=O)[C@H]3[C@@](O)(C(=O)OC)[C@H](OC(C)=O)[C@]5(CC)C=CCN6CC[C@]43[C@@H]65)C2)C1 [vincristine] + O=C(O)[C@@H]1[O][Sb](=[O])([O][Sb]2(=[O])[O][C@H]([C@H](O)CO)[C@H](O)[C@H](C(=O)O)[O]2)[O][C@H]([C@H](O)CO)[C@@H]1O [stibogluconate] (first compound 0.0001 µM, partner dose 2 µM) | 97.6 | 45.8 | 105 | 51.6 | 86.5 | 65.7 | 99.2 | 119 | 120 | 186 | 39.1 | 41.8 | 42.5 | 98.5 | 81 | 59.6 | 40.5 | 226 | 220 |
| Cc1cn(-c2cc(NC(=O)c3ccc(C)c(Nc4nccc(-c5cccnc5)n4)c3)cc(C(F)(F)F)c2)cn1 [nilotinib] + Cc1nc(Nc2ncc(C(=O)Nc3c(C)cccc3Cl)s2)cc(N2CCN(CCO)CC2)n1 [dasatanib] (first compound 0.2 µM, partner dose 0.004 µM) | 52.4 | 96.9 | 83.7 | 91.2 | 182 | 28.1 | 82.3 | 41.6 | 89 | 93.9 | 58.6 | 66.8 | 118 | 53.7 | 55.7 | 163 | 53 | 71.6 | 44.5 |
| Cc1cc(Nc2cc(N3CCN(C)CC3)nc(Sc3ccc(NC(=O)C4CC4)cc3)n2)n[nH]1 [Tozasertib] + CN1CCN(c2ccc3nc(-c4c(N)c5c(F)cccc5[nH]c4=O)[nH]c3c2)CC1 [Dovitinib] (first compound 0.006 µM, partner dose 0.1 µM) | 189 | 89.8 | 68.2 | 117 | 158 | 53.4 | 78.8 | 69.6 | 78.1 | 65 | 131 | 174 | 127 | 136 | 45.1 | 63.2 | 130 | 127 | 85.1 |
| CCCCCCCCCCCCCCCCCCOP(=O)([O-])OC1CC[N+](C)(C)CC1 [Perifosine] + NC(=O)c1ccc(N(C(N)=O)c2c(F)cccc2F)nc1-c1ccc(F)cc1F [VX702] (first compound 0.4 µM, partner dose 0.4 µM) | 88.4 | 31.4 | 132 | 771 | 71.6 | 78.9 | 93.1 | 80.4 | 107 | 70.5 | 249 | 105 | 67.7 | 196 | 118 | 32 | 56.4 | 142 | 177 |
| N#CC[C@H](C1CCCC1)n1cc(-c2ncnc3[nH]ccc23)cn1 [ruxolitinib] + Cc1cn(-c2cc(NC(=O)c3ccc(C)c(Nc4nccc(-c5cccnc5)n4)c3)cc(C(F)(F)F)c2)cn1 [nilotinib] (first compound 1 µM, partner dose 0.2 µM) | 62.7 | 41.8 | 171 | 98.8 | 69.6 | 94.1 | 99.2 | 90.3 | 268 | 149 | 106 | 52.5 | 107 | 177 | 44.6 | 87.6 | 154 | 93.5 | 120 |
| Cc1cc(Nc2cc(N3CCN(C)CC3)nc(Sc3ccc(NC(=O)C4CC4)cc3)n2)n[nH]1 [Tozasertib] + C=C(c1ccc(C(=O)O)cc1)c1cc2c(cc1C)C(C)(C)CCC2(C)C [Bexarotene] (first compound 0.006 µM, partner dose 2 µM) | 91.4 | 100 | 93.9 | 63 | 85.5 | 60.9 | 84.6 | 64.6 | 162 | 34.1 | 32.8 | 84.4 | 127 | 132 | 46.5 | 72.1 | 118 | 26.4 | 68 |
| O=C(Nc1cc(C(F)(F)F)cc(C(F)(F)F)c1)c1cc(Cl)ccc1O + O=C(O)[C@@H]1[O][Sb](=[O])([O][Sb]2(=[O])[O][C@H]([C@H](O)CO)[C@H](O)[C@H](C(=O)O)[O]2)[O][C@H]([C@H](O)CO)[C@@H]1O [stibogluconate] (first compound 0.016 µM, partner dose 2 µM) | 299 | 84.9 | 104 | 115 | 77.4 | 52.7 | 205 | 188 | 136 | 123 | 87.5 | 62.7 | 77.6 | 94.2 | 167 | 150 | 56.4 | 49.9 | 69.1 |
| Cc1cc(Nc2cc(N3CCN(C)CC3)nc(Sc3ccc(NC(=O)C4CC4)cc3)n2)n[nH]1 [Tozasertib] + C[C@@H](Oc1cc(-c2cnn(C3CCNCC3)c2)cnc1N)c1c(Cl)ccc(F)c1Cl [Crizotinib] (first compound 0.006 µM, partner dose 0.2 µM) | 98.2 | 92.2 | 224 | 37 | 83.8 | 90.5 | 97.6 | 102 | 75.1 | 69.1 | 171 | 120 | 155 | 147 | 87.4 | 44.7 | 134 | 84.8 | 72.4 |

Whole records as entered above. Order of values: cleaved PARP positive nuclei fraction (501Mel) [%]	cleaved PARP positive nuclei fraction (A101D) [%]	cleaved PARP positive nuclei fraction (A2058) [%]	cleaved PARP positive nuclei fraction (A375) [%]	cleaved PARP positive nuclei fraction (C32) [%]	cleaved PARP positive nuclei fraction (CBRC008) [%]	cleaved PARP positive nuclei fraction (CBRC014) [%]	cleaved PARP positive nuclei fraction (CBRC016) [%]	cleaved PARP positive nuclei fraction (CBRC017) [%]	cleaved PARP positive nuclei fraction (CBRC034) [%]	cleaved PARP positive nuclei fraction (COLO792) [%]	cleaved PARP positive nuclei fraction (COLO800) [%]	cleaved PARP positive nuclei fraction (COLO829) [%]	cleaved PARP positive nuclei fraction (G361) [%]	cleaved PARP positive nuclei fraction (IPC-298) [%]	cleaved PARP positive nuclei fraction (IST-MEL1) [%]	cleaved PARP positive nuclei fraction (LB2518-MEL) [%]	cleaved PARP positive nuclei fraction (LOXIMVI) [%]	cleaved PARP positive nuclei fraction (MEL-HO) [%]
O=c1[nH]nc(Sc2ncc([N+](=O)[O-])s2)n1-c1ccc2c(c1)OCCO2 + Cc1nc(Nc2ncc(C(=O)Nc3c(C)cccc3Cl)s2)cc(N2CCN(CCO)CC2)n1 [dasatanib] (first compound 0.2 µM, partner dose 0.004 µM) in the list: 108	144	181	74.7	82.7	34	115	46.5	135	433	82.9	94	88.9	103	189	122	112	139	70.5
Cc1cc(Nc2cc(N3CCN(C)CC3)nc(Sc3ccc(NC(=O)C4CC4)cc3)n2)n[nH]1 [Tozasertib] + C=C(c1ccc(C(=O)O)cc1)c1cc2c(cc1C)C(C)(C)CCC2(C)C [Bexarotene] (first compound 0.006 µM, partner dose 2 µM) in the list: 91.4	100	93.9	63	85.5	60.9	84.6	64.6	162	34.1	32.8	84.4	127	132	46.5	72.1	118	26.4	68
